# Results as given in PubChem BioAssay AID328 (DTP/NCI, 2004).
# The list shows only some results of the screen, not a fair sample: it gathers tests that were run many times, whatever their T/C, doses with no T/C, and many T/C values between a quarter and a half above the control. Further doses and runs are listed elsewhere. T/C: endpoint of the treated group in % of that of the vehicle group. Some doses have a count of surviving animals in place of a T/C: the source holds a T/C of zero for them, seemingly a mark for toxic or unscored doses. Some doses without a T/C left all or most animals alive at the check, yet need not have been tolerated: the source hardly ever lists a survival T/C far under the control, and the zero likely stands for such cases as well. Counts of survivors are from the toxicity check (mostly the fifth day) where no day follows; animals may have died later. Schedule codes are those of the source, taken here to give the interval after Q, in days (D) or hours (H), and the number of doses after X. Some entries hold several experiments; their values stand side by side, smallest first. Where survival is the endpoint, the PubChem record calls one and a half times the control and up active, and a quarter to a half above the control has no call in these data; cut-offs in other NCI protocols can differ. Some T/C values are followed by the survivors on the day toxicity was checked, most often the fifth; without a count, all were alive then.
# Test system: BDF1 mice, P388 leukemia ip, median survival T/C
# Assay: NCI In Vivo Anticancer Drug Screen. Data for tumor model P388 Leukemia (intraperitoneal) in B6D2F1 (BDF1) mice
# Details: T/C endpoint: median survival time, higher T/C = longer survival
# Outline: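 Read-out is survival of treated animals expressed relative to the vehicle group, as a T/C ratio.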
# [1] = dose: 200.0 mg/kg/injection, schedule: Q01DX009 (ip), vehicle: saline with Tween-80
# [2] = dose: 25.0 mg/kg/injection, schedule: Q01DX009 (ip), vehicle: saline with Tween-80
# [3] = dose: 50.0 mg/kg/injection, schedule: Q01DX009 (ip), vehicle: saline
# [4] = dose: 200.0 mg/kg/injection, schedule: Q04DX003 (ip), vehicle: saline with Tween-80
# [5] = dose: 400.0 mg/kg/injection, schedule: Q04DX003 (ip), vehicle: saline with Tween-80
compound,measurement,setting,value
O=C1CC/C(=N\O)N1,survivor count,"dose: 300.0 mg/kg/injection, schedule: Q01DX009 (ip), vehicle: saline",7 of 7
CCCCCCCCCCCCCCSCCSCCSCCCCCCCCCCCCCC,survivor count,"dose: 50.0 mg/kg/injection, schedule: Q01DX001 (ip), vehicle: saline sonified",6 of 6
CC1(C)N=C(N)N=C(N)N1c1ccc(OCCNC(=O)Nc2ccc(S(=O)(=O)F)cc2)c(Cl)c1,T/C,"dose: 7.2 mg/kg/injection, schedule: Q01DX009 (ip), vehicle: saline",127 % of control
same,T/C,"dose: 11.0 mg/kg/injection, schedule: Q01DX009 (ip), vehicle: saline",136 % of control [5 of 6 alive]
same,T/C,"dose: 16.0 mg/kg/injection, schedule: Q01DX009 (ip), vehicle: saline",140 % of control
same,T/C,"dose: 66.0 mg/kg/injection, schedule: Q04DX003 (ip), vehicle: saline",145 % of control
same,survivor count,"dose: 100.0 mg/kg/injection, schedule: Q04DX003 (ip), vehicle: saline",3 of 6
same,survivor count,"dose: 150.0 mg/kg/injection, schedule: Q01DX009 (ip), vehicle: saline",6 of 6
same,survivor count,"dose: 150.0 mg/kg/injection, schedule: Q04DX003 (ip), vehicle: saline",1 of 6 and 3 of 6
C[CH2][Ge]1([CH2]C)[CH2]CC2(CCN(CCCN(C)C)C2)C[CH2]1,survivor count,"dose: 40.0 mg/kg/injection, schedule: Q01DX009 (ip), vehicle: saline with Tween-80",3 of 3
same,survivor count,"dose: 80.0 mg/kg/injection, schedule: Q01DX009 (ip), vehicle: saline with Tween-80",3 of 3
same,survivor count,"dose: 100.0 mg/kg/injection, schedule: Q01DX009 (ip), vehicle: saline",2 of 3 and 6 of 6
same,survivor count,"dose: 200.0 mg/kg/injection, schedule: Q01DX009 (ip), vehicle: saline",0 of 3 and 0 of 6
same,survivor count,"dose: 400.0 mg/kg/injection, schedule: Q01DX009 (ip), vehicle: saline",0 of 6
O=C(O)O.[Ce],T/C,[1],126 % of control
CC(=O)OC(C)C1C2=C(C(=O)CC1(C)O)C(=O)c1c(ccc(-c3ccc4c(c3O)C(=O)C3=C(C4=O)C(C(C)OC(C)=O)C(C)(O)CC3=O)c1O)C2=O (centres undefined),T/C,"dose: 12.5 mg/kg/injection, schedule: Q01DX009 (ip), vehicle: saline with Tween-80",128 % of control [5 of 6 alive]
same,survivor count,[2],3 of 6
C[CH2][Sn]([CH2]C)([O]S(=O)(=O)CC12CCC(CC1=O)C2(C)C)[O]S(=O)(=O)CC12CCC(CC1=O)C2(C)C,T/C,"dose: 6.25 mg/kg/injection, schedule: Q01DX009 (ip), vehicle: saline",149 % of control [5 of 6 alive]
same,survivor count,[3],0 of 6
CC(C)=CCC/C(C)=C\CCl,T/C,"dose: 50.0 mg/kg/injection, schedule: Q01DX009 (ip), vehicle: saline with Tween-80",125 % of control
same,T/C,"dose: 150.0 mg/kg/injection, schedule: Q01DX009 (ip), vehicle: saline with Tween-80",128 % of control
same,survivor count,[1],2 of 6
same,survivor count,[4],6 of 6
same,survivor count,[5],4 of 6
CCC[CH2][Sn]([CH2]CCC)([O]C(C)=O)[O]C(C)=O,T/C,"dose: 3.0 mg/kg/injection, schedule: Q01DX009 (ip), vehicle: saline",144 % of control
same,T/C,"dose: 6.15 mg/kg/injection, schedule: Q01DX009 (ip), vehicle: saline",145 % of control
same,survivor count,"dose: 12.5 mg/kg/injection, schedule: Q01DX009 (ip), vehicle: saline",3 of 6
same,survivor count,[2],2 of 6
same,survivor count,"dose: 25.0 mg/kg/injection, schedule: Q01DX009 (ip), vehicle: saline",0 of 6 and 1 of 6
same,survivor count,[3],0 of 6
CN(N=O)C(N)=O,T/C,"dose: 16.5 mg/kg/injection, schedule: Q04DX003 (ip), vehicle: saline with Tween-80",125 % of control
same,survivor count,"dose: 100.0 mg/kg/injection, schedule: Q04DX003 (ip), vehicle: saline with Tween-80",6 of 6
same,survivor count,[4],0 of 6
same,survivor count,[5],3 of 6
